Measurements from US20230203142A1, “TREATMENT OF METABOLIC DISORDERS THROUGH THE TARGETING OF A NOVEL CIRCULATING HORMONE COMPLEX” (The President and Fellows of Harvard College, priority 2020, published 2023).
These are yes or no findings as the source states them, for the method shown. Binding can be weak; no strength is given.

Target: GST-tagged NDPK (GST-NDPK)
Assay: immunoprecipitation of GST-NDPK, Western blot

B1: recombinant human FABP4 (fatty acid binding protein 4) (protein)
chain: CDAFVGTWKLVSSENFDDYMKEVGVGFATRKVAGMAKPNMIISVNGDVITIKSESTFKNTEISFILGQEFDEVTADDRKVKSTITLDGGVLVHVQKWDGKSTTIKRKREDDKLVVECVMKGVTSTRVYERA
- binding: binds
